Experimental data from publication PMC11229374, “Unlocking the potential of protein-derived peptides to target G-quadruplex DNA: from recognition to anticancer activity” (Nucleic Acids Research, 2024).

Key:
c-KIT2 G4 [1] = assay: Isothermal titration calorimetry (ITC) with c-KIT2 G4; format: binding, human; details: ITC at 25°C; for TΔS°: TΔS° = ΔH° – ΔG°; for ΔG°: ΔG° = -RT ln Ka
Protocol: (§1) ITC experiments were conducted at 25°C using a nano-ITC Low Volume calorimeter (TA instruments, Lindon, UT, USA). DNA and peptide solutions were prepared using the same batch of buffer (5 mM KH2PO4/K2HPO4 buffer containing 20 mM KCl, pH 7.0) to prevent differences in buffer composition and pH. Each titration consisted of 25 injections of a 2 μl peptide solution (280–400 μM) sequentially injected using a computer-controlled 50 μl syringe, into the calorimetric vessel (190 μl) containing the oligonucleotide (16–20 μM). A spacing of 300 s between each injection was applied to allow the system to reach the equilibrium. The heat generated by peptide dilution was assessed in a control experiment by injecting the peptide solution into the buffer (Supplementary Figure S30). All measurements were performed in triplicate. Subsequently, the interaction heat for each injection was calculated considering the correction for the heat of peptide dilution. The corrected heat values were plotted as a function of the molar ratio to provide binding isotherms. The isotherms were fitted with a multiple-sites binding model using the NanoAnalyze software (TA instruments) provided with the instrument. This analysis provided the equilibrium binding constant (Ka), binding enthalpy (ΔH°), and stoichiometry of interaction (n). The equilibrium dissociation constant (Kd), Gibbs free-energy change and entropy change were determined using the following relationships: Kd = 1/Ka, ΔG° = -RT ln Ka (R = 8.314 J mol^−1 K^−1, T = 298.15 K), and TΔS° = ΔH° – ΔG°.

[2] = CD secondary structure estimation (BeStSel), peptide alone; format: physicochemical; details: peptide 4 µM alone, CD 20°C, 5 mM KH2PO4/K2HPO4 pH 7.0, 20 mM KCl
HER2 G4 [3] = assay: CD secondary structure estimation (BeStSel), peptide with HER2 G4; format: binding, human
c-KIT2 G4 [4] = assay: CD secondary structure estimation (BeStSel), peptide with c-KIT2 G4; format: binding, human
HER2 G4 [5] = assay: Isothermal titration calorimetry (ITC) with HER2 G4; format: binding, human; details: ITC at 25°C
Protocol: as §1

[6] = peptide 4 µM + HER2 G4 2 µM, CD 20°C, G4 signal subtracted
[7] = peptide 4 µM + c-KIT2 G4 2 µM, CD 20°C, G4 signal subtracted

Ac-NHTANSIRHRFRVYLSKRL-NH2 [Myb^A400]
n (stoichiometry of interaction) (c-KIT2 G4 [1]): 2 | TΔS° (c-KIT2 G4 [1]): –21.0 (±9.0) kJ mol^−1 | ΔG° (c-KIT2 G4 [1]): –39.2 (±7.0) kJ mol^−1

Ac-NHTGNSIRHRFRVYLAKRL-NH2 [Myb^A412]
n (stoichiometry of interaction) (c-KIT2 G4 [1]): 2 | TΔS° (c-KIT2 G4 [1]): –20.4 (±7.2) kJ mol^−1 | ΔG° (c-KIT2 G4 [1]): –38.4 (±5.8) kJ mol^−1

Ac-NHTGNSIRHRFRVYLSKRL-NH2 [Myb^397–415]
Estimated secondary structure content, Antiparallel [2]: 23.2% | Estimated secondary structure content, Helix [2]: 0.0% | Estimated secondary structure content, Others [2]: 57.6% | Estimated secondary structure content, Parallel [2]: 0.0% | Estimated secondary structure content, Turn [2]: 19.2% | n (stoichiometry of interaction) (c-KIT2 G4 [1]): 2 | TΔS° (c-KIT2 G4 [1]): –9.2 (±3.1) kJ mol^−1 | ΔG° (c-KIT2 G4 [1]): –38.2 (±2.3) kJ mol^−1 | increase in the estimated helical content (HER2 G4 [3]; CD 200–250 nm, 20°C, in the presence of HER2 G4, G4 signal subtracted): ~20% | Estimated secondary structure content, Antiparallel (HER2 G4 [3]; [6]): 20.5% | Estimated secondary structure content, Helix (HER2 G4 [3]; [6]): 22.7% | Estimated secondary structure content, Others (HER2 G4 [3]; [6]): 43.1% | Estimated secondary structure content, Parallel (HER2 G4 [3]; [6]): 0.0% | Estimated secondary structure content, Turn (HER2 G4 [3]; [6]): 13.8% | increase in the estimated helical content (c-KIT2 G4 [4]; CD 200–250 nm, 20°C, in the presence of c-KIT2 G4, G4 signal subtracted): approximately 10% | Estimated secondary structure content, Antiparallel (c-KIT2 G4 [4]; [7]): 22.4% | Estimated secondary structure content, Helix (c-KIT2 G4 [4]; [7]): 10.0% | Estimated secondary structure content, Others (c-KIT2 G4 [4]; [7]): 48.6% | Estimated secondary structure content, Parallel (c-KIT2 G4 [4]; [7]): 0.0% | Estimated secondary structure content, Turn (c-KIT2 G4 [4]; [7]): 19.1% | n (stoichiometry of interaction) (HER2 G4 [5]): 3 | TΔS° (HER2 G4 [5]; TΔS° = ΔH° – ΔG°): –24.4 (±5.1) kJ mol^−1 | ΔH° (HER2 G4 [5]; triplicate): –64.4 (±1.1) kJ mol^−1 | ΔG° (HER2 G4 [5]; ΔG° = -RT ln Ka): –40.0 (±4.0) kJ mol^−1
